According to paper PMC7387338:
No constants are given. Whether binding was seen depends on the method and setting. Binding seen in cells or lysates may run through a third protein. Some results given as binding are weak or reduced against the parent protein; the word gives no strength. Tags and fused reporters may be left off the sequences shown.

B1: HA-tagged Skint2 (protein, UniProt A7XUX6 22-400)
chain: SEKFTVTGLQRPVLAPLGGNVELSCQLSPPQQAQHMEIRWFRNRYREPVYLYRNGKDLHGETISKYVERTELLKDDIGKGKVTLRIFKLTADDDGSYHCVFKVGEFYEEHITEIKVTATSSVMYILMQPPNIKGVMLECHSGGWFPQPHMEWRDNKGNIIPATSKAHSQDENKLFNMTMTLLIEASSHRSITCYLQNLLTHQEESISIVLSGELFSWKRVWIMILTTIGFMMIAFCMTYCVQQHLLYGTFSKGKCHWLKSTMIFMFSVIAVTGVMLILHLKQRVPVSDQHFELDTLWLEDISVILCVLIVFIIKLISFIYFRLEGDHQGWSLPPYLSATPTAAICRLAVPEYSRGHLQLDSEDDLAGMGPSPFFITPCF
B2: Skint2, endogenous, untagged (protein, UniProt A7XUX6 22-400)
chain: SEKFTVTGLQRPVLAPLGGNVELSCQLSPPQQAQHMEIRWFRNRYREPVYLYRNGKDLHGETISKYVERTELLKDDIGKGKVTLRIFKLTADDDGSYHCVFKVGEFYEEHITEIKVTATSSVMYILMQPPNIKGVMLECHSGGWFPQPHMEWRDNKGNIIPATSKAHSQDENKLFNMTMTLLIEASSHRSITCYLQNLLTHQEESISIVLSGELFSWKRVWIMILTTIGFMMIAFCMTYCVQQHLLYGTFSKGKCHWLKSTMIFMFSVIAVTGVMLILHLKQRVPVSDQHFELDTLWLEDISVILCVLIVFIIKLISFIYFRLEGDHQGWSLPPYLSATPTAAICRLAVPEYSRGHLQLDSEDDLAGMGPSPFFITPCF

What was measured:
[1] = target: T1, N-terminal Flag-tagged Skint1 (mouse) (UniProt A7TZE6); assay: co-IP; anti-Skint1 immunoprecipitation from RIPA lysates of 293T cells co-transfected with Flag-Skint1 and HA-Skint2; Protein G beads, three washes in RIPA buffer; western blot
T1 sequence: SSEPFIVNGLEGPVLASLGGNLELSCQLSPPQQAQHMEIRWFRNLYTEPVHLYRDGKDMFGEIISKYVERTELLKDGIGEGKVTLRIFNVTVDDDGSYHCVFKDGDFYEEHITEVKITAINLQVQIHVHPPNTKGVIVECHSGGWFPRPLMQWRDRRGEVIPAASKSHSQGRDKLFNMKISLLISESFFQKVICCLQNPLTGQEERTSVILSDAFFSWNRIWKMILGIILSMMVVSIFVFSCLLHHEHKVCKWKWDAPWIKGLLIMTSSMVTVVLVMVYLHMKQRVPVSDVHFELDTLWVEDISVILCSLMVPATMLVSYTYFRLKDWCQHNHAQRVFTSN

[2] = target: T2, N-terminal Flag-tagged Skint1 expressed in transgenic mice (NF-Skint1^Tg) (mouse) (UniProt A7TZE6); assay: co-IP; anti-Flag (M2 beads, overnight at 4 °C) immunoprecipitation from RIPA lysates of pooled E17/E18 thymi of NF-Skint1^Tg (22) and FVB (12) pups; three washes in RIPA buffer; 3xFlag peptide eluate or boiled beads; western blot with anti-Skint1 and anti-Skint2
T2 sequence: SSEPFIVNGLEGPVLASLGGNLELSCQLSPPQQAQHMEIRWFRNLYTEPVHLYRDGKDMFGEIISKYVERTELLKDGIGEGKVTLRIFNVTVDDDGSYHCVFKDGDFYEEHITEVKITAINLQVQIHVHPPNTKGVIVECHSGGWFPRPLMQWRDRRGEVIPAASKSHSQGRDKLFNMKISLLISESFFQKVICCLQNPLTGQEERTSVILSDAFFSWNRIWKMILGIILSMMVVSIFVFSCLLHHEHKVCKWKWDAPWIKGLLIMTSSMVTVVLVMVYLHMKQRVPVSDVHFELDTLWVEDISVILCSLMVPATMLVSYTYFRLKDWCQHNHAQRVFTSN

Row | Binder | binding [1] | binding [2]
1 | B1 | binds | 
2 | B2 |  | binds
